Experimental data reported in patent publication US20170112792A1, “ENHANCED ATRA-RELATED COMPOUNDS DERIVED FROM STRUCTURE-ACTIVITY RELATIONSHIPS AND MODELING FOR INHIBITING PIN1” (Beth Israel Deaconess Medical Center, Inc., priority 2014, published 2017).
These are yes or no findings as the source states them, for the method shown. In cells and extracts the contact can be indirect. Some binding calls cover weakened binding; strength is not graded here.

Chains of the proteins cited; added tags and fusions are not shown.
UniProt Q9QUR7: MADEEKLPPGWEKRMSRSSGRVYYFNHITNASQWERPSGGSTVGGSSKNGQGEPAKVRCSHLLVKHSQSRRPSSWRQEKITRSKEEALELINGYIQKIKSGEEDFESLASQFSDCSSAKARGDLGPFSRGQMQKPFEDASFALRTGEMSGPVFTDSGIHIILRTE

What was measured:
IRAKM S110E [1] = biological target: T1, IRAKM S110E (UniProt Q9Y616); assay: CO-IP in DC2.4 cells (FIG. 58D)
T1 sequence (looked up): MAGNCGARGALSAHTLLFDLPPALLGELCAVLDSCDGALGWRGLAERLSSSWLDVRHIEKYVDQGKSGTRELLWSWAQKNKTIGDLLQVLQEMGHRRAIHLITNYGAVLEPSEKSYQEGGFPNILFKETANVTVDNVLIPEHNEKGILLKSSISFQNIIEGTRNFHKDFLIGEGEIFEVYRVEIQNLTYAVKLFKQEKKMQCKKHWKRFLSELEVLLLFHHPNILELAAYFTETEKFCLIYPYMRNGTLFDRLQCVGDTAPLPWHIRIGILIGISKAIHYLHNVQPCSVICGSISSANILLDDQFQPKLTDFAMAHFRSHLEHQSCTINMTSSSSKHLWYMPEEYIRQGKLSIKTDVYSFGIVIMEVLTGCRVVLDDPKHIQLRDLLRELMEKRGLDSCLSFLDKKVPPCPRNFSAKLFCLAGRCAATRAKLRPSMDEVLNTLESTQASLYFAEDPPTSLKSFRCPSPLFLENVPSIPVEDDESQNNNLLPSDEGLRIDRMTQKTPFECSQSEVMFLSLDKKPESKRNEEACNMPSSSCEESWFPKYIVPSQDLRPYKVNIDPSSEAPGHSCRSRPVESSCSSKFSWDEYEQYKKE

IRAKM S110E [2] = biological target: T1, IRAKM S110E; assay: co-IP with anti-IRAKM antibody from DC2.4 cells stably expressing IRAKM, S110E or P111A, without and with IL33, western blot for Pin1

Pin1, endogenous in DC2.4 cells (from UniProt Q9QUR7 1-165) (enzyme)
binding (IRAKM S110E [1]): binds | binding (IRAKM S110E [2]): binds
